Assay results from the supplement of paper PMC10849652.
The other results are listed elsewhere or left out.

Sequences of proteins named here, by UniProt entry; tags and fusion partners are left off. A change or cut given only in a name is not applied to a line headed by its entry.
UniProt P02749: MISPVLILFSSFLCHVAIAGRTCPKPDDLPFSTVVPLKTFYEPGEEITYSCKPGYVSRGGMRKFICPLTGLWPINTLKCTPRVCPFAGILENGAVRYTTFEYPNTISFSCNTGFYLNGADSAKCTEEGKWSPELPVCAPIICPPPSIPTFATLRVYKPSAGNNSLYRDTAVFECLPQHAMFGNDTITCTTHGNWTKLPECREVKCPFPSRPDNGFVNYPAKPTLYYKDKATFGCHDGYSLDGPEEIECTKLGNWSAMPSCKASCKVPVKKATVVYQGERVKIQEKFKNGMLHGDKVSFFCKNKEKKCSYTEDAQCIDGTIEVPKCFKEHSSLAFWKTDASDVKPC
UniProt O15085: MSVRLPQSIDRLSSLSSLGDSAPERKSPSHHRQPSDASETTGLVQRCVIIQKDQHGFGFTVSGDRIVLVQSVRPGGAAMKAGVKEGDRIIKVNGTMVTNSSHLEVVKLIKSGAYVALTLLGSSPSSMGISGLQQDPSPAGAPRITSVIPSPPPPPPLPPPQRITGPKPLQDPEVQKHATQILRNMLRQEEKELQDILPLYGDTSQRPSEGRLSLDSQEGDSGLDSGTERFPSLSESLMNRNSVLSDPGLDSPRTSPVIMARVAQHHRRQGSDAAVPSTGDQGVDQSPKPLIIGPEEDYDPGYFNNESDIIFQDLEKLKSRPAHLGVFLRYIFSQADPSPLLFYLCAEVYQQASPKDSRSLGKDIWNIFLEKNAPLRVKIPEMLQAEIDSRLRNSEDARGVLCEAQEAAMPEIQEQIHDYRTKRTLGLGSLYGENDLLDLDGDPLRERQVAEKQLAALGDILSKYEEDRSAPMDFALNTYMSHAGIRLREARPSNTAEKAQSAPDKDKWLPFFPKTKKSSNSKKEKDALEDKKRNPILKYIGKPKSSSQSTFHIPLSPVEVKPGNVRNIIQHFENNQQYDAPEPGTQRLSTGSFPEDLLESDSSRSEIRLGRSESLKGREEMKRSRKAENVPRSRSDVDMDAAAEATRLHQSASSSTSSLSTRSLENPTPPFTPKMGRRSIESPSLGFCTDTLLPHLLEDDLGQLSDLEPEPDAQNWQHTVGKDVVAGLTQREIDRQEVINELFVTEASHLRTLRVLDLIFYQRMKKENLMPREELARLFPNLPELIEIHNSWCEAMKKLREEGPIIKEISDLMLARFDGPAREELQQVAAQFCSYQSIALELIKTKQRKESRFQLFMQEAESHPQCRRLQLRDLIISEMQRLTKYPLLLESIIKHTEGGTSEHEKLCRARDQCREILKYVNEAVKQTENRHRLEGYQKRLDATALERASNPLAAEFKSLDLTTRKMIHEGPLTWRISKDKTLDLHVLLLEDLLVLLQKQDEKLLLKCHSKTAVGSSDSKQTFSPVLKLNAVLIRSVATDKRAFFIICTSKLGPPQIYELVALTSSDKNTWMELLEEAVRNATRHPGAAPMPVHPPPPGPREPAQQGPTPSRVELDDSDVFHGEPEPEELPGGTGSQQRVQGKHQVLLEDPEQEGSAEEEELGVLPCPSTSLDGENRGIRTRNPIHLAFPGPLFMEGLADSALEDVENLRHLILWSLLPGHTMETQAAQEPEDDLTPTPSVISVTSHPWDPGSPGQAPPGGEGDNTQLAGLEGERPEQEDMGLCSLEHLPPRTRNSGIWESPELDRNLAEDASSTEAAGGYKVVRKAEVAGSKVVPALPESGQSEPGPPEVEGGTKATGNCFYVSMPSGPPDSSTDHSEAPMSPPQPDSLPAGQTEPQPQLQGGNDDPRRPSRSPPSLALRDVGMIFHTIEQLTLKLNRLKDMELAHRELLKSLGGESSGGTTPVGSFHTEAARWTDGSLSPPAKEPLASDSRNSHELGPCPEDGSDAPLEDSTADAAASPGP
UniProt Q8IW19: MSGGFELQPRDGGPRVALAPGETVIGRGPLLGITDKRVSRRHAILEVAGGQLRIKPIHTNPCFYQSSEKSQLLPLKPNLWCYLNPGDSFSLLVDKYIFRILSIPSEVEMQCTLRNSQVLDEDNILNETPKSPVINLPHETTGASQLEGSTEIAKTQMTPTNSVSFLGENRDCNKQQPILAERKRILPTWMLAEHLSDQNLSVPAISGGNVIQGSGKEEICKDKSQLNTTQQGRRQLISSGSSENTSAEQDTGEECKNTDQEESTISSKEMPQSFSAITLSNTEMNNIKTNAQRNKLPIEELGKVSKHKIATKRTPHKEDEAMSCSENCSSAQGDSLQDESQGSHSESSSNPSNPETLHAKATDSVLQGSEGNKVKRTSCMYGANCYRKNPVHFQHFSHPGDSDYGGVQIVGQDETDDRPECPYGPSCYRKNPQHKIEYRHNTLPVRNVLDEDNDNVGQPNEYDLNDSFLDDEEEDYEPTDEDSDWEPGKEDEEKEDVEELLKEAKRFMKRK
UniProt P18085: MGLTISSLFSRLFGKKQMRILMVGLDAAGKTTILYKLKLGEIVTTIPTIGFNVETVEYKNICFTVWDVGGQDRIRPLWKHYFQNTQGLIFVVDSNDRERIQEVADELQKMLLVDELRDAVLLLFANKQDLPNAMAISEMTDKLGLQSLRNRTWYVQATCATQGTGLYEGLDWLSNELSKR
UniProt Q6UXV4: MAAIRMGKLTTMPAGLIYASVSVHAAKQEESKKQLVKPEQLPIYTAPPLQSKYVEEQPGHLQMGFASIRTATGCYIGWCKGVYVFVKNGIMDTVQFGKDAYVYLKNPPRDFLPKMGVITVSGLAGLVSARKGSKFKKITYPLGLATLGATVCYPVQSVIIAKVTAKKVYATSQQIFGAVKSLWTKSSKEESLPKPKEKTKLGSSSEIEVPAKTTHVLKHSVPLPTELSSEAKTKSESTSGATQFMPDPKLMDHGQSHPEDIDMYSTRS
UniProt Q9Y2Y0: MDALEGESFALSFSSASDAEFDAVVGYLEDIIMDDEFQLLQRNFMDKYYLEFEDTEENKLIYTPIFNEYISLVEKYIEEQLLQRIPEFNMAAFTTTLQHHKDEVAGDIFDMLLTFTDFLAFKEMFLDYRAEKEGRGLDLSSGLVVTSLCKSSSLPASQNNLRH
UniProt Q9NZN5: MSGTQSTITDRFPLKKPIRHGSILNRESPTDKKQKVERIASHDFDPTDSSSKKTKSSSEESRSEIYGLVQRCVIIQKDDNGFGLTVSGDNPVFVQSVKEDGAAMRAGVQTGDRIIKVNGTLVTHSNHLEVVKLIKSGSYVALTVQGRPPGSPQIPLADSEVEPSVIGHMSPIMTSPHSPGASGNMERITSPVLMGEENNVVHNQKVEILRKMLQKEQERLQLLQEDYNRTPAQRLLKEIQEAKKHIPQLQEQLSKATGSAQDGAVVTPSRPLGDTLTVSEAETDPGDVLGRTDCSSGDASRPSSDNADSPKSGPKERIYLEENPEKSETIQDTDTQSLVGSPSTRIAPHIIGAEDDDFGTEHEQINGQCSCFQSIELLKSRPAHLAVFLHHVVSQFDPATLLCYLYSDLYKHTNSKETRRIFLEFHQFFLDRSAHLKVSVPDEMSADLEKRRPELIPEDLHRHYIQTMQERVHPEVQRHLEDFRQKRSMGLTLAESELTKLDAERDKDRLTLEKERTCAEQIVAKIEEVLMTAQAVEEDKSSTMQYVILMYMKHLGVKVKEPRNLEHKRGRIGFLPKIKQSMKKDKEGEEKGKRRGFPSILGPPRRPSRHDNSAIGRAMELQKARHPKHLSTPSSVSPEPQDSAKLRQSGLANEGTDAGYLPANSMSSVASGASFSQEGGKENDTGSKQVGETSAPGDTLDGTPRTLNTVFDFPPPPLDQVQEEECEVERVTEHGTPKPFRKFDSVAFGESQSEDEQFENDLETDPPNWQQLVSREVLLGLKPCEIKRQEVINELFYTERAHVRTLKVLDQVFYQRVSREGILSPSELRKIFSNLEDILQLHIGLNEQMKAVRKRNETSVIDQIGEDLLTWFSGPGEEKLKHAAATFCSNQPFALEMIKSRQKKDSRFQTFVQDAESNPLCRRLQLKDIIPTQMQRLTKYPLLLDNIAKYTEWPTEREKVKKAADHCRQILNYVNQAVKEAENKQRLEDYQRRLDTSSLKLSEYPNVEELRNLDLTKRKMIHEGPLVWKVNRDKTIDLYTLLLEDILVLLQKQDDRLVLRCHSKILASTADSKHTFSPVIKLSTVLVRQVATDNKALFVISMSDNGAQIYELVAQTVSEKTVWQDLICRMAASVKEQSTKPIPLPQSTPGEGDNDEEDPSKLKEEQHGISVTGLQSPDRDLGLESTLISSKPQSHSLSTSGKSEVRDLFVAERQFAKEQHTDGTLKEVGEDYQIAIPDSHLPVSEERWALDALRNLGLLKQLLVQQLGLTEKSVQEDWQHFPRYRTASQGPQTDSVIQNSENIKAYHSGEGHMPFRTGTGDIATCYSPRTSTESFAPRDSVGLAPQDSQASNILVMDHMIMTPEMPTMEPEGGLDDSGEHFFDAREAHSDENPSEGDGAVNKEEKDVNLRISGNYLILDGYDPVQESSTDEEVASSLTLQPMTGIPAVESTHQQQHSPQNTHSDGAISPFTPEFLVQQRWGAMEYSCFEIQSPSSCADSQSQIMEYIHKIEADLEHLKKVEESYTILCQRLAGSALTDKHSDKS
UniProt P02649, whole entry, looked up: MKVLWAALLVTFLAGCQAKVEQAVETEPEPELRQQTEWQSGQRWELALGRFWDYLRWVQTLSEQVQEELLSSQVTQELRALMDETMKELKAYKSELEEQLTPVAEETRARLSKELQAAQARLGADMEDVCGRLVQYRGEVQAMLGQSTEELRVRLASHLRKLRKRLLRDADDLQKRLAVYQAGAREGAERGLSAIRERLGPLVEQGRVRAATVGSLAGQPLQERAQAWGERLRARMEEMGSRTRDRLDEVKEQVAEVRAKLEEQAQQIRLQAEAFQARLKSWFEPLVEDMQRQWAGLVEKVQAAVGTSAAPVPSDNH
UniProt Q66PJ3: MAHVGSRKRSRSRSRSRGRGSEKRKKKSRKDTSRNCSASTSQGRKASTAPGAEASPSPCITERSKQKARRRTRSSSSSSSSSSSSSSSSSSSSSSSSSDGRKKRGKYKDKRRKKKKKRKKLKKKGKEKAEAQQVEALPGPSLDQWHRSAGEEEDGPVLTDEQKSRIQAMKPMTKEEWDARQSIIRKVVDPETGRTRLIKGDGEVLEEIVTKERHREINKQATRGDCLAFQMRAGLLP
UniProt Q9H0R1: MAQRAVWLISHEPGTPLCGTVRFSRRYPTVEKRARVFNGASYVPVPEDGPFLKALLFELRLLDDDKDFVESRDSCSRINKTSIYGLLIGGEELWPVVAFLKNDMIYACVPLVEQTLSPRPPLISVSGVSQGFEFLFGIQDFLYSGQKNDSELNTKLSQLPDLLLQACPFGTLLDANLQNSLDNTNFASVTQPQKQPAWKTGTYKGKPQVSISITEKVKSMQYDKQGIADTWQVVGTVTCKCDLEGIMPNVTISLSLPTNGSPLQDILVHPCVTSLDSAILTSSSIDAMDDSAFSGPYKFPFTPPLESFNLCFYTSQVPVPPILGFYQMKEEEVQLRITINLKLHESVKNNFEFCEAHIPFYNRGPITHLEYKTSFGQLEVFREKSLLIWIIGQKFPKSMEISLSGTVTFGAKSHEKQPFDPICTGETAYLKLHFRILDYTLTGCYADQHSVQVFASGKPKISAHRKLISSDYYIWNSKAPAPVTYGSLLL
UniProt P40616: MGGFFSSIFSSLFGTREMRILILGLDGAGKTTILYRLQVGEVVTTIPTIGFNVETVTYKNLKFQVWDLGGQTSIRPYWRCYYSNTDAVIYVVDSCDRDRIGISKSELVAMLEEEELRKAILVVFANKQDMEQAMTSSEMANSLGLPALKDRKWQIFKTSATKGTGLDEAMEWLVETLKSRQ
UniProt Q14CB8: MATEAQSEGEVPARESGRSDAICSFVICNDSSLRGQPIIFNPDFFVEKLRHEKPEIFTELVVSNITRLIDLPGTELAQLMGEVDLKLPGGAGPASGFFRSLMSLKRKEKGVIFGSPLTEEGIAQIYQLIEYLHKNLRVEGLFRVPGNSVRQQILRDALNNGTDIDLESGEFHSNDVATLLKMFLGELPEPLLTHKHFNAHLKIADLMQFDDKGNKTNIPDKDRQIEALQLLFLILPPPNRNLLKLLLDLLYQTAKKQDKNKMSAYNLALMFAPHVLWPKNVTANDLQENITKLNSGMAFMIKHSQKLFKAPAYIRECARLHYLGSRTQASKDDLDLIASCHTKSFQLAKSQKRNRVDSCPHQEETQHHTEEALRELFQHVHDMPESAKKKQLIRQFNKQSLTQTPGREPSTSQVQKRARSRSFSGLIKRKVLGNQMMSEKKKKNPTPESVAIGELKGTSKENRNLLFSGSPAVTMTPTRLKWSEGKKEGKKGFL
UniProt P62330: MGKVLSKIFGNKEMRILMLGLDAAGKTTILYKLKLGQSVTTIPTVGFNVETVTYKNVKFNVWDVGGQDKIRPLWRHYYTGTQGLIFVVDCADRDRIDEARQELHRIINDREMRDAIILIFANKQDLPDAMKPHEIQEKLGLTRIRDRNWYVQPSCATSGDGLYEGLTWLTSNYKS

These targets were tested with C1=CC=C(C=C1)[C@H](COC2=CC3=C(C=C2)NC(=O)N3)NC(=O)C4=CC=CN(C4=O)CC5=CC(=C(C=C5)F)F (assay: log2 fold change, soluble protein after heating vs DMSO (PISA); higher = thermal stabilisation; K562 lysate, 10 uM; active = over 0.2 and 3.5 SD of the protein, either way, in both replicates (recomputed)).
Summary of the method: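 To prepare the extract, K562 pellets were dounce-homogenised in PBS pH 7.4 with 1 mM MgCl2, giving crude material at 1 mg/mL protein. This was treated with 10 μM compound for 30 min, then heated in aliquots for 3 min over 48°C-58°C before pooling and addition of NP-40 to 0.5% at 4°C. Centrifugation at 21,000xg for 90 min left soluble protein in the supernatant, which TMTpro 16plex LC-MS/MS quantified with equalised channel sums. Results are log-two fold changes in thermal stability compared with solvent controls, from duplicates.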

Q: How did the log2 fold change turn out when APOH (UniProt P02749) was run?
A: inactive: -0.068

Q: ARHGEF11 isoform 2 (UniProt O15085) was tested. Which log2 fold change did it give?
A: inactive: 0.056

Q: With APIP (UniProt Q96GX9) as the target, how does the log2 fold change read?
A: inactive: -0.025

Q: Which log2 fold change does the source give for APLF (UniProt Q8IW19) here?
A: inactive: -0.031

Q: Which log2 fold change does the source give for APC (UniProt P25054) here?
A: inactive: -0.019

Q: With ARL2 (UniProt P36404) as the target, how does the log2 fold change read?
A: inactive: 0.01

Q: How did the log2 fold change turn out when ARID3B (UniProt Q8IVW6) was run?
A: inactive: -0.074

Q: Which log2 fold change does the source give for ARF4 (UniProt P18085) here?
A: inactive: 0.003

Q: ARCN1 (UniProt P48444) was tested. Which log2 fold change did it give?
A: inactive: -0.003

Q: ARRB1 isoform 2 (UniProt P49407) was tested. Which log2 fold change did it give?
A: inactive: 0.054

Q: How did the log2 fold change turn out when APOOL (UniProt Q6UXV4) was run?
A: inactive: 0.024

Q: For ARL2BP (UniProt Q9Y2Y0), which log2 fold change is on record?
A: inactive: -0.086

Q: With ARID2 (UniProt Q68CP9) as the target, how does the log2 fold change read?
A: inactive: 0.077

Q: Which log2 fold change does the source give for ARHGEF12 (UniProt Q9NZN5) here?
A: inactive: -0.03

Q: APOE (UniProt P02649) was tested. Which log2 fold change did it give?
A: inactive: -0.059

Q: APOO (UniProt Q9BUR5) was tested. Which log2 fold change did it give?
A: inactive: -0.046

Q: For ARL6IP4 isoform 7 (UniProt Q66PJ3), which log2 fold change is on record?
A: inactive: 0.159

Q: ARGLU1 (UniProt Q9NWB6) was tested. Which log2 fold change did it give?
A: inactive: 0.049

Q: With ARPIN isoform 2 (UniProt Q7Z6K5) as the target, how does the log2 fold change read?
A: inactive: -0.019

Q: How did the log2 fold change turn out when AP5M1 (UniProt Q9H0R1) was run?
A: inactive: 0.018

Q: With ARL1 (UniProt P40616) as the target, how does the log2 fold change read?
A: inactive: 0.094

Q: For ARHGAP19 isoform 2 (UniProt Q14CB8), which log2 fold change is on record?
A: inactive: 0.071

Q: For ARF6 (UniProt P62330), which log2 fold change is on record?
A: inactive: 0.022
